Test results from publication doi:10.1101/2021.09.30.462231.
These are yes or no findings as the source states them, for the method shown. For some assays here: Binding seen in cells or lysates may run through a third protein. Some entries that bind do so weakly or less than the wild type. For some assays here: Where a sequence is shown, tags or fusion partners need not be part of it. Blank lines part the entries; values can stand above or below the binder they belong to.

Tests used:
[1] = target: T1, Trs130 (S. cerevisiae) (UniProt Q03660); assay: cryo-EM structure
T1 sequence: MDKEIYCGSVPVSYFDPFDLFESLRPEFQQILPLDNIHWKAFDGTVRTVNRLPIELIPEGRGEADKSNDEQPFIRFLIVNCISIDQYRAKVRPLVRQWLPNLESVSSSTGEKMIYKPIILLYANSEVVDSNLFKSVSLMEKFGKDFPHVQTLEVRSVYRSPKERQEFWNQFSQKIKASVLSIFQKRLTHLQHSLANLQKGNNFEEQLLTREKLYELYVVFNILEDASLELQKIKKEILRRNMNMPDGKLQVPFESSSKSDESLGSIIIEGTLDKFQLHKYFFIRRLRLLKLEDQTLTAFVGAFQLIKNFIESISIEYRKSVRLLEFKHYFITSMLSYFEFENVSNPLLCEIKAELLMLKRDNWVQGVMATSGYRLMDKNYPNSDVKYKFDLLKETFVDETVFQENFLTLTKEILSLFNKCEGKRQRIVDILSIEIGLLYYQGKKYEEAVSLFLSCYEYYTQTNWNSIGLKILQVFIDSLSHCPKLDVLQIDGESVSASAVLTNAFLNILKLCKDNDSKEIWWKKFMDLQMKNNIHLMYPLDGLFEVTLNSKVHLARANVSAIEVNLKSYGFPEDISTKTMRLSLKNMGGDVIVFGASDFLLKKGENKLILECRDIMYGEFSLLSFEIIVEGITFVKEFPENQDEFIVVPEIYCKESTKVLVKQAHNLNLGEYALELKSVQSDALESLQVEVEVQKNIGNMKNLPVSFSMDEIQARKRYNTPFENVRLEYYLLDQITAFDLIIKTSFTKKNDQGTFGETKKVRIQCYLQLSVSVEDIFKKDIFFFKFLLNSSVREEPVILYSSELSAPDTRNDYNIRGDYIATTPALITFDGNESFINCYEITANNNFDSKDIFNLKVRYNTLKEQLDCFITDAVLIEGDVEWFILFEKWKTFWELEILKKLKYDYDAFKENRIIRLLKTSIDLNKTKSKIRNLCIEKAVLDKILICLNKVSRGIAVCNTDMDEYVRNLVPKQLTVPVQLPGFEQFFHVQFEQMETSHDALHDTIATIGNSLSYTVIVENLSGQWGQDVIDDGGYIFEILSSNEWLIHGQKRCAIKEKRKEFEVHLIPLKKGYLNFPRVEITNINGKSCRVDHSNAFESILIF

[2] = target: T2, GST-Sec23 (S. cerevisiae) (UniProt P15303); assay: pull-down
T2 sequence: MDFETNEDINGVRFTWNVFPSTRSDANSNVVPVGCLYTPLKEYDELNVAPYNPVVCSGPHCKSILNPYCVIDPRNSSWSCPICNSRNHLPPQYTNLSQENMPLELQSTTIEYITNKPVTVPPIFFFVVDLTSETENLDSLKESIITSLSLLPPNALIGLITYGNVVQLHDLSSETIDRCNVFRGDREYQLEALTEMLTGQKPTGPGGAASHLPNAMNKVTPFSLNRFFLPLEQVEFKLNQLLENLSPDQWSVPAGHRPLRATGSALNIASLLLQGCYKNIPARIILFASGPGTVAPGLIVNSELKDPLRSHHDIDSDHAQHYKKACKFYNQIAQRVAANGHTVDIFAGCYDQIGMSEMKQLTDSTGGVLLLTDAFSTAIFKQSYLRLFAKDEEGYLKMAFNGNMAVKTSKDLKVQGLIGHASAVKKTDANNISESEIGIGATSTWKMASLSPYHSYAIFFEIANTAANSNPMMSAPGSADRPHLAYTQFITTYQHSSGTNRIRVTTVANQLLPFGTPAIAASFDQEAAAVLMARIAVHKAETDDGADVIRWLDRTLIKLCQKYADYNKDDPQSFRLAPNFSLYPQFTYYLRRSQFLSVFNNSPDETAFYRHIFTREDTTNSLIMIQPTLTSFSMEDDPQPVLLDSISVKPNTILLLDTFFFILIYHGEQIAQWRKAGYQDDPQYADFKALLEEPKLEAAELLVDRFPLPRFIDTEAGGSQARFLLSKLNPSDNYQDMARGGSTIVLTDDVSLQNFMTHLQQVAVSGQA

binding [1]: binds
B1: Tca17 (protein, UniProt P32613 1-152)
chain: MSLRPCFVSLIDESDKPILIYVPNEAENEMNDVLKYNVLSNISLDYFESALVEWHSLDSKPLLKSIFQLEGVSVFAMLIKQTGLKIVIGFEQKSLSGADDEFEAINQIFETVRKIYIRVKCNPLLVSGDEKSIIKSLERKFDELFISTEVEL

binding [2]: binds
B2: Full length Grh1 (protein, UniProt Q04410 1-372)
chain: MFRIAKNLVRTFEQSVQDTLALSQDSSNLDAFFQSIPPNLLSAQLESPVDAVSEGVKHTNVNETLSGLRIVWVDEMQFQLQSFFDYIVGFNDDPVPVVSNQHGFSYPDYRRITSIFNEHCGRTLKVNIWSAKGGTFRDEYISIISKESDDLDDVSLNHDERRPSSGEAHQFQALGFKVQWTPLIASTFTYHILNVNIPDGPAQSAGLIPDEDYIIGCQDGLLATGGETLLQDIVRSRANYDLVLYVYNKVSDCVRPITVHIGPDGRLGCNVGYGFLHRIPTVKHCPQQAQQQGQDDNPVPVPVPVESETAFVPSAFTAPPVPTKKKSKNKKGTQPLAMDDYFNEGRDKSSTAAKSAESDILAPPPQKQSSSD
